Assay results reported in publication PMC11848624.
These are yes or no findings as the source states them, for the method shown. In cells and extracts the contact can be indirect. Some entries that bind do so weakly or less than the wild type. Where a sequence is shown, tags or fusion partners need not be part of it.

Chains of the proteins cited; added tags and fusions are not shown.
UniProt P19474: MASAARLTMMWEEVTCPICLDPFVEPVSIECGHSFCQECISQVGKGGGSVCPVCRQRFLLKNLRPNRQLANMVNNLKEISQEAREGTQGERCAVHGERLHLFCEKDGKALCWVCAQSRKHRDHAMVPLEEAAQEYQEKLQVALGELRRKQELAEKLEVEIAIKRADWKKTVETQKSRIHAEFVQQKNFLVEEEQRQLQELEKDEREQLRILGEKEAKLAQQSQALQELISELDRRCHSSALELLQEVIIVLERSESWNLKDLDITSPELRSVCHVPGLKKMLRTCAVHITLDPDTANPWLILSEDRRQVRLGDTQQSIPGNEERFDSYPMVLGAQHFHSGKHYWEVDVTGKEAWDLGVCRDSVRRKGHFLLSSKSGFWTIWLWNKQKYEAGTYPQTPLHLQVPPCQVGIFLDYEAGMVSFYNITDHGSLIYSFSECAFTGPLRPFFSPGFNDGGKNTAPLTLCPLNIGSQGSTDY

Biological target: T1, HIS-EPHX1 (UniProt P07099)
T1 sequence: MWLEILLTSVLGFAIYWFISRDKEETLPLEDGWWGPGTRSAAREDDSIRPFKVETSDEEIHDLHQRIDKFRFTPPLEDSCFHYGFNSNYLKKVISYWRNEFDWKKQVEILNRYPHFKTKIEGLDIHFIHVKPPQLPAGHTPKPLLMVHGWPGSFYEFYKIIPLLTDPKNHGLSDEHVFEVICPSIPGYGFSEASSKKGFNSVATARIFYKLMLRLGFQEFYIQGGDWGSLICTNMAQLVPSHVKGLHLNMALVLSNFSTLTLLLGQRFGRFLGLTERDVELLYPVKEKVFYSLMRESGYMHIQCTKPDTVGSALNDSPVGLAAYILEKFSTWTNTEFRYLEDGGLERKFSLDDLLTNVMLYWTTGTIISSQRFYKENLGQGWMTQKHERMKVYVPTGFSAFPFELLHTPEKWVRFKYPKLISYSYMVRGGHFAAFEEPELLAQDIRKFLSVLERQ
Experiment: co-IP; BXPC3 and SW1990 cells overexpressing HIS-EPHX1, WT cells as negative control; immunoprecipitation with HIS-magnetic beads, overnight at 4 °C

binding: binds
Substance: TRIM21 (endogenous) (from UniProt P19474 1-475)
